# Measured values published in PubChem BioAssay AID1671190 (National Center for Advancing Translational Sciences (NCATS), 2021).
# Chains of the proteins cited; added tags and fusions are not shown. Lines headed by an entry give the natural chain unless they say otherwise; changes in a name come on top.
# UniProt P18054: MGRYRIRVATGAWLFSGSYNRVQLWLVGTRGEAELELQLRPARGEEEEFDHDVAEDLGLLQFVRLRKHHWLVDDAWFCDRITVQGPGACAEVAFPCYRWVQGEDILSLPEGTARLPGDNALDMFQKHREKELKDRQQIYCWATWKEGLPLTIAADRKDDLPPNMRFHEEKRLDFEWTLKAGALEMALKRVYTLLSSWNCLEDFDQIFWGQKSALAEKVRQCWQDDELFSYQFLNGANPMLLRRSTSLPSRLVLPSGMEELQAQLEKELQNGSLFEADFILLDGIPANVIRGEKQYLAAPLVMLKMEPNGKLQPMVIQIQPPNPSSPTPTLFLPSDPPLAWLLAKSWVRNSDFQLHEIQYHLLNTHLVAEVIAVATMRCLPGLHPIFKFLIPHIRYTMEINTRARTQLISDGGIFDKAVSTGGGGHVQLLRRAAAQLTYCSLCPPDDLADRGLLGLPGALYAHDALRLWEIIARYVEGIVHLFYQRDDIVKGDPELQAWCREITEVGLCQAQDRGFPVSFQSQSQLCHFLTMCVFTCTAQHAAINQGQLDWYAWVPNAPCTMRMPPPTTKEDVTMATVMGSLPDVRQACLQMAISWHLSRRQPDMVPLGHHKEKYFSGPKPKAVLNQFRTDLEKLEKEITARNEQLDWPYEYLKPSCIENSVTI
# Out of some 580,000 compounds screened, about 6,100 (1.1%) were called active. Inconclusive results, whose numbers are uncertain, are shown with a selection of clear calls. Calls come from the whole dose curve; as a rule, active = well fitted inhibition curve with a large enough effect; inconclusive = small, poorly fitted or top-dose-only effect, or another doubt; inactive = no such curve, though single readings can be large or run the other way. Potencies beside an inconclusive call are fits to weak or partial responses and may not hold up.
# Biological target: Polyunsaturated fatty acid lipoxygenase ALOX12 (Homo sapiens) (UniProt P18054)
# Assay: Primary qHTS assay for inhibitors of human arachidonate 12S-lipoxygenase (ALOX12): Round 2
# Details: purified 12hLO, xylenol orange hydroperoxide absorbance; activity change, negative = inhibition: at 108 µM (top of the series) unless noted
# Method in brief: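 Purified human 12hLO at 150 nM in 25 mM Hepes, 0.01% Triton X-100, pH 7.0, preincubated 15 min at room temperature with compound. Reaction started with 40 uM arachidonic acid, 30 min at room temperature. Hydroperoxide measured by Fe-xylenol orange, 573/405 nm absorbance ratio.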
# % is set by controls: 0 for no effect and ±100 for the full control effect; potency is the fitted concentration of half-maximal effect.
SMILES,Potency,"activity change, negative = inhibition"
CSC(=S)NN=C1CCCCC1,"inconclusive: 50.1 µM [inhibitor, partial curve, poor fit]",–
Cn1ccc2cc(-c3ccc4c(n3)c(=O)ncn4CC3CC3)ccc21,"inconclusive: 50.1 µM [inhibitor, full curve, poor fit]",–
CCCCCOC(=O)c1c(C)oc2ccc(NS(=O)(=O)c3cccs3)cc12,"inconclusive: 31.6 µM [inhibitor, partial curve, poor fit]",–
CCOc1ccc(C(=O)Nc2ncc(C)s2)cc1OCC,–,inactive: 6.93%
CCc1ccc2nc(-c3cccc(C)c3)nc(SCC(=O)NCC3CCCO3)c2c1 (stereo not given),"inconclusive: 126 µM [inhibitor, partial curve, poor fit]",–
COc1ccc(NS(=O)(=O)CC23CCC(CC2=O)C3(C)C)cc1 (stereo not given),–,inactive: -9.28%
Cc1cccc(C)c1OCC(=O)Nc1nonc1-c1ccc(Br)cc1,–,inconclusive: -33.6% [inhibitor]
Fc1ccc2c(c1)c1n[nH]c(=S)nc1n2CCc1ccccc1,"inconclusive: 3.55 µM [inhibitor, full curve, poor fit]",–
Cc1cc2cc(C)c(NCCNC(=O)c3ccccc3Cl)nc2cc1C,"inconclusive: 50.1 µM [inhibitor, partial curve, poor fit]",–
C/C(O)=C(\C#N)c1nnc2n1CCCCC2,"inconclusive: 0.891 µM [inhibitor, full curve, poor fit]",–
O=C(COC(=O)c1ccc2c(c1[N+](=O)[O-])C(=O)c1ccccc1C2=O)NC1CC1,"inconclusive: 7.94 µM [inhibitor, partial curve, poor fit]",–
CCCCn1c(=S)[nH]c2cc(S(=O)(=O)N3CCCCC3)ccc21,"inconclusive: 7.94 µM [inhibitor, partial curve, poor fit]",–
CCCCCCC1CCC(C(=O)Oc2ccc(OCC)cc2)CC1 (stereo not given),–,inactive: -6.64%
COc1ccccc1N1CSC2=C(C#N)C(c3ccc(SC)cc3)CC(=O)N2C1 (stereo not given),active: 11.2 µM,–
CN(C)S(=O)(=O)c1cccc(NC(=S)NC23CC4CC(CC(C4)C2)C3)c1,"inconclusive: 50.1 µM [inhibitor, partial curve, poor fit]",–
COC(=O)N1CCC2(CCCN(c3cccc(-c4ccccc4)c3)C2)CC1,"inconclusive: 31.6 µM [inhibitor, single point]",–
COc1cccc(N2C(=O)CC(N3CCN(c4ccc([N+](=O)[O-])cc4)CC3)C2=O)c1 (stereo not given),–,inactive: -25.1%
COc1ccc2nc(C)cc(SCC(NC(C)=O)C(=O)O)c2c1 (stereo not given),"inconclusive: 112 µM [inhibitor, single point]",–
O=C(NC1CCCC1)c1cc(-c2ccc(Cl)s2)nc2ccccc12,"inconclusive: 39.8 µM [inhibitor, partial curve, poor fit]",–
Cc1nc(NC(=O)C23CC4CC(CC(C4)C2)C3)sc1Cc1ccc2c(c1)OCO2,"inconclusive: 44.7 µM [inhibitor, partial curve, poor fit]",–

# No new results follow: an excerpt of the list.
SMILES,Potency,"activity change, negative = inhibition"
Fc1ccc2c(c1)c1n[nH]c(=S)nc1n2CCc1ccccc1,"inconclusive: 3.55 µM [inhibitor, full curve, poor fit]",–
Cc1cc2cc(C)c(NCCNC(=O)c3ccccc3Cl)nc2cc1C,"inconclusive: 50.1 µM [inhibitor, partial curve, poor fit]",–

# Next part.

SMILES,Potency,"activity change, negative = inhibition"
O=C(Cc1c(F)cccc1Cl)Nc1ccccc1C(=O)N1CCCCC1,"inconclusive: 50.1 µM [inhibitor, partial curve, poor fit]",–
Cc1ccc(N2CCN(C(=O)c3cc4cc([N+](=O)[O-])ccc4oc3=O)CC2)cc1C,"inconclusive: 100 µM [inhibitor, single point]",–
Cn1c(=O)c(Cc2ccccc2)c(O)c2ccccc21,–,inactive: 8.68%
Cc1cccc(N(C)C(=O)Cn2cc(C#N)c3ccccc32)c1,"inconclusive: 2.51 µM [inhibitor, full curve]",–
COc1ccc(CC2(CO)CCN(C(C)Cc3ccc(Cl)cc3)CC2)cc1 (stereo not given),"inconclusive: 44.7 µM [inhibitor, partial curve]",–
CC1=C(C(=O)OC2CCCCCCC2)C(c2ccc(O)cc2)NC(=O)N1 (stereo not given),"inconclusive: 11.2 µM [inhibitor, full curve]",–
O=C(Nc1nc2n(n1)C(c1ccc(F)cc1)C=C(c1ccc(Cl)cc1)N2)c1ccco1 (stereo not given),"inconclusive: 44.7 µM [inhibitor, partial curve, poor fit]",–
CCN(C(=O)CCS(=O)(=O)c1cccc2nsnc12)c1cccc(C)c1,inactive,–
O=C(/C=C/c1ccc(Cl)cc1)Nc1cccc(OC(F)F)c1,"inconclusive: 79.4 µM [inhibitor, single point]",–
N#Cc1ccc(F)c(CSc2nnc(NCc3ccccc3)s2)c1,"inconclusive: 70.8 µM [inhibitor, partial curve, poor fit]",–
Cc1ccc(S(=O)(=O)Nc2nc3ccccc3nc2N2CCOCC2)cc1,"inconclusive: 35.5 µM [inhibitor, partial curve, poor fit]",–
CS(=O)(=O)c1ccc2nc(NC(=O)C3CC(=O)N(c4ccc(F)cc4)C3)sc2c1 (stereo not given),"inconclusive: 50.1 µM [inhibitor, single point]",–
O=c1c2ccccc2c(=O)n(-c2ccccc2)n1CCCCBr,"inconclusive: 35.5 µM [inhibitor, single point]",–
COc1ccc(/C=C2/CCCC(CN(C)C)C2=O)cc1 (stereo not given),"inconclusive: 39.8 µM [inhibitor, partial curve, poor fit]",–
CCOc1ccc2oc(=O)cc(CN3CCN(c4ccc(OC)cc4)CC3)c2c1,"inconclusive: 112 µM [inhibitor, partial curve, poor fit]",–
Cc1cc(=O)oc2ccc(OCC(=O)N(Cc3ccc(F)cc3)Cc3ccco3)cc12,"inconclusive: 25.1 µM [inhibitor, partial curve, poor fit]",–
C[C@@H]1CN([C@@H](C)CO)C(=O)CCCn2nncc2CO[C@@H]1CN(C)S(=O)(=O)c1ccc(C#N)cc1,–,inactive: -6.42%
COc1cc(C(O)c2nc(C(=O)NCCN(C)C)cs2)cc(OC)c1OC (stereo not given),"inconclusive: 112 µM [inhibitor, partial curve, poor fit]",–
CC(=O)Nc1ccc(CNC2CCCc3ccccc32)cc1 (stereo not given),–,inactive: -30.2%
CCOC(=O)CSc1nc2sc3c(c2c(=O)n1-c1ccc(C)cc1)CCN(C)C3,"inconclusive: 44.7 µM [inhibitor, partial curve, poor fit]",–
